# Reference: PubChem BioAssay AID488965 (Broad Institute, 2010)
# The campaign covered roughly 340,000 compounds. About 210 (0.062%) were called active. Inconclusive results, whose numbers are uncertain, are shown with a selection of clear calls. Cut-off read from the data, not from the text of the source: active = inhibition above about 30% (passing the limit was not always enough); inconclusive = no clear call, values can overlap the other calls.
# Test system: PvdQ acylase [Pseudomonas aeruginosa LESB58]
# Assay: P. aeruginosa PvdQ acylase inhibitors, primary screen, biochemical, fluorescence, plate reader and imaging, single point (AID 488965);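 note: 0% = vehicle neutral wells and 100% = reference inhibitor wells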
# Conditions: purified PvdQ acylase, at 10 µM, hits give high values
row,Structure (SMILES),inhibition
1,N#CC1C(C#N)C2CCC1C1C2N1c1ccccc1 (configuration not stated),inconclusive: 30.8%
2,O=[N+]([O-])c1ccc2c(c1)Cc1cc(O)ccc1-2,inconclusive: 34.1%
3,CC1CCN(CC(=O)c2ccccc2Cl)CC1,inconclusive: 37.3%
4,C=C1N2CCC(CC2)C1(O)c1ccc(C)cc1 (configuration not stated),inactive: -4.29%
5,CCC(=NCCc1c[nH]c2ccccc12)c1c(O)n(C)c(=O)n(C)c1=O,inactive: -5.95%
6,Cc1cc(N(CCCl)CCCl)ccc1C=NNC(=O)c1cccnc1,inconclusive: 35%
7,CC1(C)CC2(CCO1)NCCN1C(=O)CSC12 (configuration not stated),inconclusive: 33.5%
